This assay deals with T1, Paa1-L-YFP (S. pombe) (UniProt Q9UT08).
T1 sequence: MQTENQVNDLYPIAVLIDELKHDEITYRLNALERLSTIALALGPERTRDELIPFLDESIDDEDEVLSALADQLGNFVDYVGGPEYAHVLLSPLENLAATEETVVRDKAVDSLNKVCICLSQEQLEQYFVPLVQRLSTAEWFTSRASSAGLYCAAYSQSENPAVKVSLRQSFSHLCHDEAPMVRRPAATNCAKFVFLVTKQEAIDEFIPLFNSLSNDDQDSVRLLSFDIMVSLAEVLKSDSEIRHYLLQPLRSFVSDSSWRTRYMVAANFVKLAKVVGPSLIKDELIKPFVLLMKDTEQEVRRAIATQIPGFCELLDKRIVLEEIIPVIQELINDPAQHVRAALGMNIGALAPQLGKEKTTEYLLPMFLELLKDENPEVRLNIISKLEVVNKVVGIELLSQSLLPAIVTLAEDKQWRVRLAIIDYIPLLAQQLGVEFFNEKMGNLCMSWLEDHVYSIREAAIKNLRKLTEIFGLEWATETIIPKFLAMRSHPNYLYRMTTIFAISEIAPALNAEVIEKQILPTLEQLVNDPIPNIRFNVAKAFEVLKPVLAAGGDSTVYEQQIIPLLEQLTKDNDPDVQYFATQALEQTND
Nature of the assay: affinity purification with mass spectrometry; YFP-tagged bait (Paa1-L-YFP or Pab1-L-YFP) on GFP-Trap beads; cells 1 hour in EMM2-N, crosslinked with 1% formaldehyde for 10 min at 25 °C; lysis buffer 25 mM Tris HCl pH 7.5, 150 mM NaCl, 0.5% SDS (diluted to 0.1%), 1% NP40; washes with 500 mM NaCl.

Amino acid sequences for entries named in this document (tags omitted).
UniProt P13681: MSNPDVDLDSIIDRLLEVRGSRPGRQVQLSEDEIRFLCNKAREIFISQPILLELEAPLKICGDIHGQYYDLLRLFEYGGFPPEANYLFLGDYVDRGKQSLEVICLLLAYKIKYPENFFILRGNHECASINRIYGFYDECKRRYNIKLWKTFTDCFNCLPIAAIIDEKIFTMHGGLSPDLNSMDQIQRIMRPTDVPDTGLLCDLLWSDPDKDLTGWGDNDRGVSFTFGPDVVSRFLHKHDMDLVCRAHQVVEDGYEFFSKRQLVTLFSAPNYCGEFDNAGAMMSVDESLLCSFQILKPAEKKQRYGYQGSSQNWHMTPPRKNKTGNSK
UniProt Q10428: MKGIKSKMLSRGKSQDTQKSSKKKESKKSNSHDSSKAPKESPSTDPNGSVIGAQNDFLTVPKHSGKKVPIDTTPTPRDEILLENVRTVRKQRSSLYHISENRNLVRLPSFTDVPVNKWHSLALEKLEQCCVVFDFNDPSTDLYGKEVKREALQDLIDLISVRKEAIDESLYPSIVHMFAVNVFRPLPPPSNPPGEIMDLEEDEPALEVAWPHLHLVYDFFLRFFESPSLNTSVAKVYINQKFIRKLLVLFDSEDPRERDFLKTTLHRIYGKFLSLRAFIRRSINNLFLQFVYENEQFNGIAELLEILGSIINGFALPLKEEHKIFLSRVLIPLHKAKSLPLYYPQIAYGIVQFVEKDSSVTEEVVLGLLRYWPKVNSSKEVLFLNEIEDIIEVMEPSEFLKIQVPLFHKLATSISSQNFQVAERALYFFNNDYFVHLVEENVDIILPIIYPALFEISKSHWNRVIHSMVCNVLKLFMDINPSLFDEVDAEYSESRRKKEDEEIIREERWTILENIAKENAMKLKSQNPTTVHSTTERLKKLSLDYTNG
UniProt P23635: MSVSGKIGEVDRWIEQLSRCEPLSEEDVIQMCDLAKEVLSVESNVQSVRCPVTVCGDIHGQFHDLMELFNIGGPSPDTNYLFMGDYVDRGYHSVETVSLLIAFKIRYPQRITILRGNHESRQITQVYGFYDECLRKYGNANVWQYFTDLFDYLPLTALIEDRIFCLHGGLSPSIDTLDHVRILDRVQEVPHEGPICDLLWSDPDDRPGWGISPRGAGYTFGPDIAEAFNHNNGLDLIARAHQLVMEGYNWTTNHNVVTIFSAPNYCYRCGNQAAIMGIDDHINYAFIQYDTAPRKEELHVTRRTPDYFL
UniProt P23636: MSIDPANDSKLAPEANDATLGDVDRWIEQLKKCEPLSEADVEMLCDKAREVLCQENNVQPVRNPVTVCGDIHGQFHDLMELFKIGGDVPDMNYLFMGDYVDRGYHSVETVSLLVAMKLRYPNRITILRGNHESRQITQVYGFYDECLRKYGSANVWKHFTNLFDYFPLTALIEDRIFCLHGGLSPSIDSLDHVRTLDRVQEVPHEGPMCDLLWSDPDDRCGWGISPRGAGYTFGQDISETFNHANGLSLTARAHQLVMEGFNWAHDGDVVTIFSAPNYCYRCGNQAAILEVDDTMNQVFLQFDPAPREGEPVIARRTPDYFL

No constants are given. Whether binding was seen depends on the method and setting. In cells and extracts the contact can be indirect. These calls come from enrichment with a bait or labelling near it, and not all partners need be listed. Tags and fused reporters may be left off the sequences shown.

For “Dis2 (from UniProt P13681 1-327) (enzyme)”, the binding result was “binds”.

On to “Igo1 (S. pombe (endogenous in S. pombe cells))”, for which the binding entry is “binds”.

With “Pab1 (S. pombe (endogenous in S. pombe cells))”, the binding entry was “binds”.

On to Par1 (from UniProt Q10428 1-548), for which the binding entry is reported as “binds”.

Consider “Ppa1 (from UniProt P23635 1-309) (enzyme)”, for which the binding result is given as “binds”.

For “Ppa2 (from UniProt P23636 1-322) (enzyme)”, the binding result was “binds”.

Take “Ppa3 (S. pombe (endogenous in S. pombe cells)) (enzyme)”: the binding result is “binds”.

These data come from PMC10723533.
